Reference: PubChem BioAssay AID662 (National Center for Advancing Translational Sciences (NCATS), 2007)
The list shows a part of the results. These are further read-outs of the screen, such as a control signal, another cell line or another target. No call is given for them. The list favours compounds with an active or inconclusive main result. Potencies come from curve fits of mixed quality, noted in brackets.

Assay: Cell signaling CRE-BLA (Fsk stim)
Conditions: CHO CRE-bla reporter (cAMP response element driving beta-lactamase), forskolin EC10, beta-lactamase ratio; measured here: 460 nm blue channel
Summary of the method: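 CRE-bla CHO reporter cells treated with compound titration plus EC10 NKH 477 (water-soluble forskolin), incubated 3 h at 37 °C; CCF4 loading 2 h at room temperature, 460/530 nm emission ratio read, AC50 values derived for positive or negative modulators.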

Structure (SMILES)	AC50
N[C@@H](C(=O)O)c1ccc(C(=O)O)c(O)c1	25.1 µM [falling, single point]
CN/C(=C\[N+](=O)[O-])NCCSCc1ccc(CN(C)C)o1	25.1 µM [falling, partial curve, poor fit]
Cc1cccc(OCC(=O)Nc2ccccc2N2CCCCC2)c1	3.98 µM [rising, full curve]
CC1=NC(Nc2nc(C)c3ccccc3n2)=NC(C)(C)C1	12.6 µM [rising, single point]
CN1CCN(c2nc3ccccc3nc2C(C#N)C(=O)OC2CCCCC2)CC1 (stereo not drawn)	2 µM [rising, partial curve]
c1ccc2nc3c(nc2c1)c1ccccc1n3CCN1CCOCC1	12.6 µM [rising, partial curve]
Cc1cc(C)c2c(n1)nn1c(NCCOCCO)cc(C)nc21	20 µM [rising, partial curve]
CCc1c(C)nc2ncnn2c1N1CCC(C(=O)NCc2ccc3c(c2)OCO3)CC1	10 µM [rising, partial curve]
COC(=O)Nc1nc2ccc(Sc3ccccc3)cc2[nH]1	2.51 µM [rising, full curve]
CCn1c(CNc2ccc(Cl)cc2)nnc1SCC(=O)NCc1ccccc1	0.0631 µM [falling, partial curve, poor fit]
Cc1cc(NCCN2CCOCC2)n2ncc(-c3ccccc3)c2n1	3.16 µM [falling, single point]
CCCN1CCN(CCCNC(=O)CN2C(=O)COc3ccccc32)CC1	31.6 µM [falling, partial curve, poor fit]
CCN(CC)S(=O)(=O)c1ccc2oc(C(=O)Nc3ccc(OC)cc3OC)c(C)c2c1	12.6 µM [rising, partial curve]
Cc1cc(N2CCN(C(=O)c3ccco3)CC2)n2nc(-c3cccc(Cl)c3)cc2n1	5.01 µM [rising, single point]
Cc1ccc(N(CC(=O)Nc2ccc(C)cn2)S(=O)(=O)c2c(C)nn(C)c2C)cc1	1.58 µM [rising, partial curve]
CCC(Sc1nc2n[nH]c(C)c2c(=N)n1-c1ccc(C)c(Cl)c1)C(=O)N1CCOCC1 (stereo not drawn)	12.6 µM [rising, partial curve]
CCn1cc(C(=O)NCCCN2CCC(C)CC2)c2cc(OC)c(OC)cc2c1=O	15.8 µM [rising, partial curve]
Cc1cnc(C(=O)Nc2cccc3cccnc23)cn1	3.98 µM [falling, single point]
Cc1cc(NC(=O)CSc2nc3ccccc3c(=O)n2C2CCCC2)no1	12.6 µM [rising, partial curve]
N#Cc1cccc(-c2cc(NCc3cccnc3)ncn2)c1	12.6 µM [rising, partial curve]
O=c1c(-c2ccc(Cl)cc2)nc2cncnc2n1Cc1ccc(F)cc1	6.31 µM [rising, partial curve]
O=C(CC(c1ccccc1O)N1CCCCC1)N1CCCCC1 (stereo not drawn)	0.316 µM [rising, partial curve]

Pulled by compound from above (two):
Structure (SMILES)	AC50
CCc1c(C)nc2ncnn2c1N1CCC(C(=O)NCc2ccc3c(c2)OCO3)CC1	10 µM [rising, partial curve]
CCN(CC)S(=O)(=O)c1ccc2oc(C(=O)Nc3ccc(OC)cc3OC)c(C)c2c1	12.6 µM [rising, partial curve]

(next part)

Structure (SMILES)	AC50
CCC(CC)COC(=O)C(C#N)c1nc2ccccc2nc1N1CCOCC1 (stereo not drawn)	10 µM [rising, partial curve]
COC(=O)c1c(N)n(-c2cc(OC)cc(OC)c2)c2nc3ccccc3nc12	7.94 µM [rising, partial curve]
CCOC(=O)C1CCN(C(=O)c2oc3ccc(S(=O)(=O)N4CC(C)CC(C)C4)cc3c2C)CC1 (stereo not drawn)	12.6 µM [falling, single point]
O=C(C1CCC1)N1CCc2cc(S(=O)(=O)NCc3ccco3)ccc21	12.6 µM [rising, single point]
CC1(Cc2ccc3c(c2)OCO3)NC(=O)NC1=O (stereo not drawn)	12.6 µM [falling, single point]
COc1ccccc1OCCn1cc(C(=O)c2ccco2)c2ccccc21	25.1 µM [falling, single point]
COc1ccc(NC2=C(C(C)=O)C(c3ccc4c(c3)OCO4)C(C(C)=O)C(C)(O)C2)cc1 (stereo not drawn)	31.6 µM [falling, single point]
COc1ccc(CCNC(=O)C2CCN(Cc3nc(-c4cccc(Cl)c4)oc3C)CC2)cc1OC	0.398 µM [falling, full curve, poor fit]
FC(F)(F)c1ccccc1-c1cncnc1NCCN1CCOCC1	0.794 µM [rising, full curve, poor fit]
Cc1cccc(-n2ncc3c(NCc4ccccn4)ncnc32)c1	12.6 µM [rising, single point]
COc1ccc2c(c1)OCC1=C2CCC2(C)C(=O)CC=C12 (stereo not drawn)	10 µM [falling, partial curve]
N#Cc1nc(-c2ccccc2)oc1N1CCCCC1	7.94 µM [rising, partial curve]
COCCn1c(=O)c(-c2ccc(OC)cc2)nc2cnc(N3CCNCC3)nc21	5.01 µM [rising, partial curve]
CCN1CC2=C(OC(N)=C(C#N)C2c2cccs2)/C(=C/c2cccs2)C1 (stereo not drawn)	10 µM [falling, partial curve]
COc1ccc(S(=O)(=O)NCc2ccc(C(=O)N3CCN(c4ccccn4)CC3)cc2)cc1	0.00316 µM [falling, full curve, poor fit]
COc1cc(NC2=CC(=O)CC(C)(C)C2)cc(OC)c1	0.398 µM [falling, full curve]
CCNc1ncc2nc(-c3ccc(OC)cc3)c(=O)n(Cc3cccs3)c2n1	0.794 µM [rising, partial curve]
C#CCNc1nc(CC)nc2c1nnn2Cc1ccccc1F	7.94 µM [rising, partial curve]
CCOc1cc2[nH]c(=O)n(Cc3cccc(OC)c3)c(=O)c2cc1OCC	2 µM [rising, partial curve]
COCCNc1ncnc2ccc(-c3ccc(C(=O)N(C)C)cc3)cc12	7.94 µM [rising, partial curve]
Cc1ccc2[nH]c(=O)c(-c3nc4c(C)cccn4c3NCc3ccco3)cc2c1	5.01 µM [falling, single point]
